This passage reports binding results from publication PMC4462140.

No constants are given. Whether binding was seen depends on the method and setting. Some binding calls cover weakened binding; strength is not graded here.

This experiment addresses myristoylated zGCAP7 (zebrafish) (UniProt Q5MAC7). Kind of experiment: SEC; analytical size exclusion chromatography of purified myristoylated zGCAPs on a Primaide HPLC system, as described previously (refs 12, 18, 30); Ca2+ dependence tested; data not shown; both purified.

B1: myristoylated zGCAP7 (protein, UniProt Q5MAC7 1-187)
chain: MGQNQSDEEEEEVELTEIQPLYTRFMKVCPSGALHLHEFRRIFGVQSSSEEEALYMETIFKSFDTNRDNVIDFMEFVAAVHLVLRGNLEDRLKWSFKVYDRDENGKLDRQEVIHVIRILCKLKKNRINMTPVEICDRIFELLDENNDGQISLSEFLEGAEKDAWIMDLLKLDTNARVWFRDNLGKKT
modifications: N-terminal myristoyl group
Regarding B1, the binding result was “binds”.
